Assay results from publication PMC9393728.
Results are given in words; binding and its absence hold for the method and conditions named. In cells and extracts the contact can be indirect. Some results given as binding are weak or reduced against the parent protein; the word gives no strength.

Sequences of proteins named here, by UniProt entry; tags and fusion partners are left off.
UniProt P01108: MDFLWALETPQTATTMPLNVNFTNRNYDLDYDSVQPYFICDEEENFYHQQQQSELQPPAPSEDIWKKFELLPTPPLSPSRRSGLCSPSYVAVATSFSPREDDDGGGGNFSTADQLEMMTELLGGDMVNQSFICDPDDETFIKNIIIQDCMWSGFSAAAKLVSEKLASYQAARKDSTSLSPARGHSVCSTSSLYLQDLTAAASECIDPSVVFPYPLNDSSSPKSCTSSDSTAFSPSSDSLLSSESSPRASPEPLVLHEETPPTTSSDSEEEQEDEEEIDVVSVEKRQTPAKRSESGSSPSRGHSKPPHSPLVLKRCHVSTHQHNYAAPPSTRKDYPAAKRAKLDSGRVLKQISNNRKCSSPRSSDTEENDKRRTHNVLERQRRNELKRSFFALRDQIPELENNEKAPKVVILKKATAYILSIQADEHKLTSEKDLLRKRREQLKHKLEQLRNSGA
UniProt Q8VBV4: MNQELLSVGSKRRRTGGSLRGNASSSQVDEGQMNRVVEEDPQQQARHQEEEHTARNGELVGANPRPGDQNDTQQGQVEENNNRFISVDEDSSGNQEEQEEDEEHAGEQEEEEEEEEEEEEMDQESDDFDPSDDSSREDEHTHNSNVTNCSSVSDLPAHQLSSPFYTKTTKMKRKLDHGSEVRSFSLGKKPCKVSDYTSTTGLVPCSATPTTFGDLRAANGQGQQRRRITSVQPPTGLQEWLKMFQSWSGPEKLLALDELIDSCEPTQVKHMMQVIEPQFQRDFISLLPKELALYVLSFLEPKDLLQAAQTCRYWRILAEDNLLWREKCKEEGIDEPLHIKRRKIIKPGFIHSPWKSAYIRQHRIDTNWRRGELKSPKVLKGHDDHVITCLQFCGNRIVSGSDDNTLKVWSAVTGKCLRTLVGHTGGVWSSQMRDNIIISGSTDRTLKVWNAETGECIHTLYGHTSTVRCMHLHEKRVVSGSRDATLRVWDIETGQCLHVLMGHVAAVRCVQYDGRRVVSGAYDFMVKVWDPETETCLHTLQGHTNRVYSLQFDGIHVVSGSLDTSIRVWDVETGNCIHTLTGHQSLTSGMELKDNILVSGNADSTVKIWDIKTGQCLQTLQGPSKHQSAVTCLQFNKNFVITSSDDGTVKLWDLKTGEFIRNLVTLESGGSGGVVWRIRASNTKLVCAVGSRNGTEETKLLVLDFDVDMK

Target: c-Myc (Myc) (mouse (endogenous in RAW264.7)) (UniProt P01108)
Test: co-IP; MG-132 (5 uM) pretreated RAW264.7 cells stimulated with 2 uM EST12 protein for 0, 1 or 12 h; RIPA lysate; 3 ug anti-Myc antibody and protein A/G beads at 4°C overnight; Western blot for Myc and FBW7

binding: binds
Substance: E3 ubiquitin ligase FBW7 (from UniProt Q8VBV4 1-710)
